Data set [1] is described as follows: Corrosion test of breaker systems in NaBr brine. The settings on record: 10% breaker in 11 lb/gal NaBr brine, non-buffered, 7 days.
A short description of data set [2]: Filter cake removal on aloxide disk. The settings on record: 20% breaker.

Structures are written as SMILES.

On to `O=C(O)CC[C@@H](C(=O)O)N(CC(=O)O)CC(=O)O` [GLDA, L-glutamic acid N,N-diacetic acid], for which the “Corrosion Rate, mm/yr” value is reported as 7.6 mm/yr in data set [1] (105° F.) and 19.1 mm/yr in data set [1] (150° F.). Moreover, the “amount of filter cake removed from the aloxide disk” value in data set [2] (soaking 16 hours) is reported as “approximately 60%”.

`O=C(O)CN(CCN(CC(=O)O)CC(=O)O)CC(=O)O` [EDTA, reference compound]: the “Corrosion Rate, mm/yr” value turned out to be 24.7 mm/yr in data set [1] (105° F.) and 60.2 mm/yr in data set [1] (150° F.). Also, in data set [2] (soaking 16 hours at 100° F. or 150° F.), the “uniformity of filter cake removal” value is listed as “effective in uniformly removing the filter cake”.

These data come from patent US8881823B2, “Environmentally friendly low temperature breaker systems and related methods” (Halliburton Energy Services, Inc., priority 2011, dated 2014).
